Test results: the supplement of paper PMC12889115
Some of the results follow. Values are raw readings; no control value is given beside them.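 In the initial screen, polymyxin B was used at a concentration that permeabilizes Salmonella's outer membrane but not its inner membrane. Maximum growth was set by DMSO wells with or without polymyxin B. Since plates varied, data were ranked per plate, and compounds giving the lowest OD600 advanced as hits.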

Tested on: Salmonella enterica serovar Typhimurium SL1344
Test: bacterial growth OD600 after 18 h with compound and polymyxin B; higher = more bacterial growth (less inhibition)
Settings: 50 µM, Mueller-Hinton broth

Structure (SMILES) | bacterial growth OD600 (polymyxin B 1 µg/mL) | bacterial growth OD600 (polymyxin B 0.75 µg/mL)
COc1ccc(C(=O)N2CCCC(C(=O)c3ccc(Cl)cc3C)C2)o1 (stereo not given) | 0.011 | 
CCN1CCN(C(=O)c2cc(COc3cccc(C(F)(F)F)c3)[nH]n2)CC1 |  | 0.787
COc1cccc(CN2CCN(Cc3cccc(F)c3F)CC2CCO)c1 (stereo not given) | 0.885 | 
CCn1cc(CN2CCCC2C(=O)Nc2ccccc2Oc2cccnc2)c(C)n1 (stereo not given) |  | 0.86
COc1ccc(C(=O)N(Cc2ccc(OCCc3scnc3C)c(OC)c2)[C@H]2CCCCNC2=O)c(OC)c1 |  | 0.788
Cc1nc(CCNC(=O)C2CCC(=O)N(CCCN3CCOCC3)C2)nc2c1CCC2 (stereo not given) | 0.815 | 
CCCc1cc(CNC(=O)c2ccc(N(C)C(C)C)nc2)on1 | 0.852 | 
O=C(NCc1ccc(F)c(F)c1)c1cc(COc2c(F)cccc2F)on1 | 0.775 | 
COc1ccccc1NC(=O)NC1CC(=O)N(Cc2cccc(F)c2)C1 (stereo not given) | 0.933 | 
CCN1CCCCC1C(=O)N1CCOc2ccc(CN3CCC(OCc4ccccc4)CC3)cc2C1 (stereo not given) |  | 0.95
COCc1c(C(=O)NCc2ccc(OC)cc2OC)cnn1-c1nccc(-c2cc(C)sc2C)n1 |  | 0.132
CC(=O)c1ccc(C(=O)N2CCC(C(Cc3ccccc3C)N(C)C(=O)Cn3cccn3)CC2)s1 (stereo not given) |  | 0.88
COc1ccccc1CCC(=O)N1CCc2onc(-c3ccccc3F)c2C1 |  | 0.521
CCn1nc(C)c(CNCc2c(C(=O)N3CCCC3)nc3sccn23)c1C | 0.87 | 
COCC1CCN(C(=O)c2ccc(OC3CCN(C(=O)C4CC4)CC3)cc2)CC1 | 0.86 | 
CC(c1ccon1)N(C)C(=O)c1coc(COc2ccccc2F)n1 (stereo not given) |  | 0.858
COc1ccc(NC(=O)CCC2CCCN(C(=O)c3csc(C(C)=O)c3)C2)cc1Cl (stereo not given) | 0.928 | 
CCN(CC1CCN(CCc2ccccc2C)CC1)C(=O)c1cccs1 | 0.905 | 
COC(=O)c1ccc(-c2nc(CN(C)Cc3nonc3C)c(C)o2)cc1 | 0.901 | 
COc1ccc(-c2ccccc2NC(=O)C2CCCN(CC(C)C)C2)cc1 (stereo not given) | 0.868 | 

Two entries from above, as a markdown table:

| Structure (SMILES) | bacterial growth OD600 (polymyxin B 1 µg/mL) | bacterial growth OD600 (polymyxin B 0.75 µg/mL) |
| --- | --- | --- |
| CCn1cc(CN2CCCC2C(=O)Nc2ccccc2Oc2cccnc2)c(C)n1 (stereo not given) |  | 0.86 |
| COc1ccc(C(=O)N(Cc2ccc(OCCc3scnc3C)c(OC)c2)[C@H]2CCCCNC2=O)c(OC)c1 |  | 0.788 |
